Measured values: the supplement of paper PMC3334620
The full ranking holds about 33,000 sequences; the median of “E-score (-0.5 to 0.5)” is about -0.0059, and the highest 2% start at about 0.26. This is one part of the list.

molecular target: T1, Cin5 (UniProt P40917); assay: PBM E-score (8-mer binding enrichment) (E-score (-0.5 to 0.5)); higher = stronger / more preferred TF binding; conditions: protein concentration: 100 nM; construct: GST-full length
T1 sequence: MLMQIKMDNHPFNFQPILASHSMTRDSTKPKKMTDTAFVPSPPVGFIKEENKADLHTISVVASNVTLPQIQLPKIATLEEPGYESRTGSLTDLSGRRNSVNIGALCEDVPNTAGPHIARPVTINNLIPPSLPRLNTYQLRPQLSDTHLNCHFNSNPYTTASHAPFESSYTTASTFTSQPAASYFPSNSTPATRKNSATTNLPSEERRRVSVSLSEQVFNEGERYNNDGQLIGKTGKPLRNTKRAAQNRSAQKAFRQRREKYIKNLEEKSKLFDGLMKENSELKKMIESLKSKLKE
How it was run: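 For each ungapped eight-base word taken together with its reverse complement, the Universal PBM Analysis Suite assigned an E-score. Binding data came from GST-tagged yeast transcription factors, applied at about 100-200 nM, on universal all-10-mer Agilent arrays made double-stranded by primer extension. Fluorescent anti-GST marked bound protein, and scans were normalised with masliner.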

Sequence	PBM E-score
CGCGCGTA	0.0312
CGGCGAAG	-0.133
GTATTGAA	0.222
AGTTCTCA	0.0601
TATACCAA	0.11
AAAAAATA	0.213
TCTGGCAA	-0.0729
CGGGGCAC	-0.242
CCGGAATC	0.155
CTACGGCC	-0.214
CGTTCCCC	-0.112
TGAATGCA	0.0583
GGTAACGA	0.114
ACGTATGA	0.162
ACGATTTA	0.244
GGAATCCA	0.0132
AATATCAT	0.241
TCCACAAA	0.058
ACTCAACT	0.0921
AATCCTAA	0.0229
GATTTTCA	0.0254
AGACAGTA	0.105
AGGGGTAG	-0.0974
GAAAGCTA	-0.0298
AACGTCTG	0.0854

Sequence	PBM E-score
ACCCTACA	0.109
CATTCGAC	0.0347
CCGCAGGC	-0.106
AATTGGGC	0.0334
CCTAGTGC	-0.0298
AAGCAGAA	0.261
ACCCCTCC	-0.104
AAGCCACT	-0.133
CTAGCAAA	0.0262
AAGGAGAT	0.0365
ACGAGACT	-0.132
ATTAGGGG	-0.0343
CGCCCCCA	-0.325
ATAGCATA	0.123
GCTACTAA	-0.0132
AACGCGGA	0.0542
GGAGCCAA	-0.0883
GCCGGGGA	-0.142
ACCCGAAC	-0.0614
AGGGGTTG	0.0241
ATGGTACA	0.1
TGCGACAA	0.00345
GAAGAAGC	-0.123
CCGCCAGG	-0.104
CAGTGAGC	-0.0152

Sequence	PBM E-score
TCCTCCCA	-0.139
AGGAAGGG	-0.311
AATCTTGG	0.122
CGGCCGTA	-0.0263
CTCTAGCA	-0.161
AAAAAAAA	0.215
ACTGTAGC	-0.0588
TAGACCCA	0.102
AGGTACAC	-0.0546
CACCCACA	0.047
CCACGGGA	-0.116
GATTATCC	0.0776
CAGCGGGG	-0.0419
GATACAAA	0.173
CATGGTAG	-0.0838
AAAGACGT	0.109
AAAACGGA	0.0411
CGTATCAC	0.0777
CATTGTAC	-0.0235
GTTTCCTA	0.089
ACAGCAAC	0.107
ATCCTAAG	0.0186
ACTTCAGC	-0.104
GGATTACC	0.131
TGTGACAA	-0.0449

Sequence	PBM E-score
GATAGGAA	0.0166
CTTACCCA	0.0832
TTCCAGAA	0.0375
CTGCAATA	0.135
GAGATACA	0.199
AGGATCAG	-0.192
AGAACGCT	-0.213
CCAATACG	-0.144
GACACGGA	-0.0636
GACCTACA	0.0137
AAGAAATT	0.0841
AAGCGTGG	-0.0866
GCTCTTAC	0.021
CCGCGGTA	0.131
CAACGAGA	0.108
TGCTCAAA	-0.0568
GAGGGTCA	-0.274
GTACATGA	0.06
TCTAGTCA	-0.0366
CTGGCATA	0.0375
CAACGAGG	0.0572
CATAAGCC	0.245
CACCACGC	-0.254
CGTATGCA	0.162
GAAAGCTC	-0.102

Nothing new here: entries from further up.
Sequence	PBM E-score
CACCCACA	0.047
CCACGGGA	-0.116
GATTATCC	0.0776
CAGCGGGG	-0.0419

Next entries follow.

Sequence	PBM E-score
CAGCCAGA	-0.128
AGAGAGGC	-0.288
AAAAGAGT	-0.0541
AATTGTCA	0.137
CGGGGCCC	0.0644
CAATATTG	0.205
AGATTCAA	0.0954
AACATGCT	0.0355
GTAACGAA	0.0747
TAGACAGA	0.0775
ACCGATTG	-0.0313
CCCATACG	-0.0527
AAGCATAG	0.015
ACAGTTGG	0.016
GATGGAAC	0.0146
AGAGTTAC	-0.0307
CATTATAA	0.0881
GCCTAGTA	-0.00713
AATGTTTG	0.0818
AATGCTCT	-0.0108
CCCTCCTA	-0.18
GCAAATAC	0.021
GACTGAGC	-0.252
CATCATAC	0.0705
GGGGTCGA	-0.091

Some values from the entries so far.
For PBM E-score, CCCTCCTA is listed with -0.18
For PBM E-score, AGAGAGGC is listed with -0.288
For PBM E-score, TAGACAGA is listed with 0.0775

More entries follow:

Sequence	PBM E-score
ATTATCGA	0.105
ACGAAGCA	0.077
ATATCGAG	0.00944
GAGGTCAA	0.025
GCGGTCCA	-0.295
AGCGTAGG	-0.0398
GAAGAGGC	-0.146
ATCCAACC	0.0673
CGTCCGGC	-0.0355
AAACCGGT	-0.0834
CCGGTTCA	-0.18
GGCGTGAC	-0.163
GATGCCGA	0.0556
GCTGGAGA	-0.241
AACATCCT	0.0581
GCCGGGTA	-0.235
AGACGGCT	-0.178
GTATAACA	0.126
ACACTTGC	0.125
GCTGAGAC	0.0196
AGGCCTAT	-0.182
GCTAATGA	0.021
CGAGCTAA	0.0146
GATGCAAA	0.0951
CCTTAGAA	-0.0933

Sequence	PBM E-score
GTTCACAA	0.00137
CTTGATCC	0.00298
AAATGGTA	0.268
AAAATGCC	0.0011
CTAGCATA	-0.039
GATAACTA	0.214
CTGAGCGC	-0.19
AAGGAGTC	-0.275
AACCCGTA	0.0145
CGGAAGGA	-0.164
ACTGATAC	-0.00272
AAATCTGC	0.043
GCTCGCCC	-0.128
ATTGACAC	-0.0732
ATGGTTCA	0.00143
CAGATAGC	-0.0791
GGCCGGGA	-0.1
TACGTCTA	0.0247
AGGTCGTC	-0.0992
AAGTACTT	0.00649
AATCACAT	0.19
CGACACAA	-0.0261
